Experimental data taken from patent publication US20150366190A1, “Sustained Release Methods to Defeat Plant Pests” (BioGuard Technologies, Inc., priority 2014, published 2015).
The name of at least one read-out is uncertain.

Test: Rapid solvent extraction screen of coated specimens (water, 50% MeOH, 100% MeOH)
Format: physicochemical
Details: aqueous 0.2% EtOH, without latex
Experimental: Two experimental protocols were used to evaluate aqueous release and the extent of active retention. The first protocol was a rapid solvent extraction screen that involved dipping the coated specimens sequentially into vials containing 35 ml water for 1, 1, 5, and 10 minutes, then 50% MeOH for 10 minutes, and 100% MeOH for 24 hours. This protocol provided a rapid comparison of water soluble and entrained, but releasable, active fractions. The second protocol was to assess release rates based on simulated precipitation/rainfall conditions. This protocol involved maintaining test samples in successive 35 ml volumes of water for 24-hour periods for up to […], providing a cumulative daily release rate from dried films. This water extraction period was followed by a single extraction in 100% MeOH for 24 and 48 hrs to determine residual/entrained or solvent removable active. […]
The first step was to determine the solvent extractability of the non-latex formulations. This was based on readily soluble (water, 17 minutes), easily soluble (50% MeOH, 10 minutes), and relatively non-water soluble (100% MeOH, 24 hr) fractions of the formulations (FIG. 3). […]
The same solvent extraction protocol was used to evaluate 2 other fungicides (chlorothalonil and spiroxamine) with differing chemistries (water solubility and solvent solubility). These were evaluated using the same solvent extraction protocol. […]

Q: Which “recovery of the supplied active” value does the source give for `CC(C1CC1)C(O)(Cn1cncn1)c1ccc(Cl)cc1` (stereo not shown) [cyproconazole] here?
A: 96%
